Consider 22 molecules from PubChem BioAssay AID192 (DTP/NCI, 2004).

The list does not hold the whole screen: it gathers tests that were run many times, whatever their T/C, doses with no T/C, and many T/C values between a quarter and a half above the control. Further doses and runs are listed elsewhere. T/C: endpoint of the treated group in % of that of the vehicle group. Some entries give survivors of the animals treated and no T/C: the source files T/C as zero there, which appears to mark a toxic dose or a test without result, not a measured value. Some survivor counts are full or nearly so, which does not show that the dose was tolerated: survival well below the control is almost never listed, so the zero probably covers shortened survival too. Counts of survivors are from the toxicity check (mostly the fifth day) where no day follows; animals may have died later. Schedule codes are those of the source, taken here to give the interval after Q, in days (D) or hours (H), and the number of doses after X. Some entries were tested several times; the results are listed from low to high. For survival time, the PubChem record calls one and a half times the control and up active, and a quarter to a half above the control has no call in these data; cut-offs in other NCI protocols can differ. Some T/C values carry the count of animals alive at the toxicity check (mostly the fifth day); where none is given, no animal had died by that day. Numbered stars: 1 amine (or outer) side, 2 acyl side, 3 side chain; on linkers, the order of the positions; unused ones are H or OH. Peptide text beside a SMILES is read from it. γGlu = O=C(O)[CH](CCC(=O)[*:2])N[*:1]

The test system of this experiment is BDF1 mice, B16 melanoma ip, median survival T/C. The experiment can be described thus: NCI In Vivo Anticancer Drug Screen. Data for tumor model B16 Melanoma (intraperitoneal) in B6D2F1 (BDF1) mice. To be noted: T/C endpoint: median survival time, higher T/C = longer survival. Here is the method:
The antitumor activity of compounds was measured in mice bearing transplantable tumors. Survival or tumor size were measured and the results are expressed as the measurement made in the treated group (T) divided by the measurement made in the vehicle treated control group (C). The tumor model used in this assay is B16 Melanoma (intraperitoneal) in B6D2F1 (BDF1) mice

[1] abbreviates: dose: 25.0 mg/kg/injection, schedule: Q01DX009 (ip), vehicle: Klucel (hydroxypropylcellulose) (HPC).
Setting [2] is: dose: 50.0 mg/kg/injection, schedule: Q01DX009 (ip), vehicle: Klucel (hydroxypropylcellulose) (HPC).
Where [3] appears, read: dose: 100.0 mg/kg/injection, schedule: Q01DX009 (ip), vehicle: Klucel (hydroxypropylcellulose) (HPC).
[4] abbreviates: dose: 200.0 mg/kg/injection, schedule: Q01DX009 (ip), vehicle: Klucel (hydroxypropylcellulose) (HPC).
[5] abbreviates: dose: 12.5 mg/kg/injection, schedule: Q01DX009 (ip), vehicle: Klucel (hydroxypropylcellulose) (HPC).
Where [6] appears, read: dose: 400.0 mg/kg/injection, schedule: Q01DX009 (ip), vehicle: saline with Tween-80.
[7] abbreviates: dose: 400.0 mg/kg/injection, schedule: Q01DX009 (ip), vehicle: saline.
The mark [8] stands for this setting: dose: 100.0 mg/kg/injection, schedule: Q01DX009 (ip), vehicle: saline.
[9] abbreviates: dose: 400.0 mg/kg/injection, schedule: Q01DX009 (ip), vehicle: Klucel (hydroxypropylcellulose) (HPC).

Regarding `NCCN`, the survivor count (dose: 600.0 mg/kg/injection, schedule: Q01DX009 (ip), vehicle: saline) is listed as 4 of 6.
Regarding `COc1ccc2c(=O)c(C)c(-c3ccccc3)oc2c1CN(C)C`, under “dose: 3.12 mg/kg/injection, schedule: Q01DX009 (ip), vehicle: saline”, the survivor count is recorded as 9 of 10.
On to `COc1ccc(/C=N/n2c3ccccc3c3ccccc32)cc1OCCCN(C)C`, for which the survivor count was 10 of 10 under setting [1], 4 of 10 under setting [2], 5 of 10 under setting [3] and 0 of 10 under setting [4].
As to `COC1C(O)=C2C(=O)OC(C)(O)/C=C/C=C\C=C/C=C/C(c3ccccc3)NC(=O)/C=C/C=C/C=C/C=C/C2(C)C1O` (stereo not given), the survivor count is, setting by setting: under setting [5], 10 of 10; under setting [1], 5 of 10; (dose: 25.0 mg/kg/injection, schedule: Q01DX009 (ip), vehicle: other) 10 of 10; under setting [2], 5 of 10; under setting [3], 1 of 10.
As for `CC(=O)NC(CO)C(=O)c1ccc(S(=O)(=O)c2ccccc2)cc1` (stereo not given), under setting [6], the survivor count is listed as 10 of 10.
As for `CCCC(=O)O.CCCC(=O)O.CCCC(=O)O.CCCC(=O)O.[Rh].[Rh]`, the survivor count (dose: 130.0 micrograms/kg/injection, schedule: Q08HX018 (ip), vehicle: saline + alcohol) is 9 of 10; the survivor count (dose: 360.0 micrograms/kg/injection, schedule: Q08HX018 (ip), vehicle: saline + alcohol) is 10 of 10; the survivor count (dose: 432.0 micrograms/kg/injection, schedule: Q01DX009 (ip), vehicle: saline + alcohol) is 10 of 10; the survivor count (dose: 600.0 micrograms/kg/injection, schedule: Q08HX018 (ip), vehicle: saline + alcohol) is 9 of 10; the survivor count (dose: 720.0 micrograms/kg/injection, schedule: Q01DX009 (ip), vehicle: saline + alcohol) is 10 of 10; the survivor count (dose: 1000.0 micrograms/kg/injection, schedule: Q08HX018 (ip), vehicle: saline + alcohol) is 3 of 10. The survivor count is on record as 9 of 10 (dose: 1200.0 micrograms/kg/injection, schedule: Q01DX009 (ip), vehicle: saline + alcohol) and 1 of 10 (dose: 2000.0 micrograms/kg/injection, schedule: Q01DX009 (ip), vehicle: saline + alcohol).
For `CCCCCCCCCCCCCCCCCC(=O)OCC(=O)OCC(=O)[C@]1(O)Cc2c(O)c3c(c(O)c2[C@@H](OC2CC(N)C(O)C(C)O2)C1)C(=O)c1c(OC)cccc1C3=O` (stereo not given in full), the T/C by setting is: (dose: 7.5 mg/kg/injection, schedule: Q01DX001 (ip), vehicle: water) 128 % of control; (dose: 15.0 mg/kg/injection, schedule: Q01DX001 (ip), vehicle: water) 147 % of control. Moreover, the survivor count runs as follows: (dose: 60.0 mg/kg/injection, schedule: Q01DX001 (ip), vehicle: water) 7 of 10 and 10 of 10; (dose: 120.0 mg/kg/injection, schedule: Q01DX001 (ip), vehicle: water) 4 of 10 and 10 of 10.
Take `NC(CCC(=O)NC(CCC(=O)O)C(=O)NC(CCC(=O)O)C(=O)O)C(=O)O` (stereo not drawn) (γGlu-Glu-Glu-OH; configuration not given here): under setting [7], the survivor count was 10 of 10.
Consider `CCC(C)C(=O)OC1C(=O)OC2CC3C(C)=CC(=O)C(O)C3(C)C3C4(O)OCC23C1C(C)C4O` (stereo not given), for which the T/C by setting is: (dose: 0.7 mg/kg/injection, schedule: Q01DX009 (ip), vehicle: saline with Tween-80) 136 % of control; (dose: 0.7 mg/kg/injection, schedule: Q01DX009 (ip), vehicle: saline) 134 % of control; (dose: 1.4 mg/kg/injection, schedule: Q01DX009 (ip), vehicle: saline with Tween-80) 140 % of control [9 of 10 alive]; (dose: 2.8 mg/kg/injection, schedule: Q01DX009 (ip), vehicle: saline) 137 % of control.
For `CCCCCCCCCCCCCCCCP(=O)(OCCOCCCCCC)OCCOCCCCCC`, the survivor count under setting [8] was 9 of 10.
With `CC(CC(C)O)=NCCN=C(C)CC(C)O.[Ni]` (stereo not given), the T/C was 147 % of control (dose: 3.0 mg/kg/injection, schedule: Q04DX003 (ip), vehicle: saline with Tween-80) and 134 % of control (dose: 6.0 mg/kg/injection, schedule: Q04DX003 (ip), vehicle: saline with Tween-80).
As for `C[N+](C)([O-])CCC=C1c2ccccc2CCc2ccccc21`, the survivor count runs as follows: (dose: 25.0 mg/kg/injection, schedule: Q01DX009 (ip), vehicle: saline) 10 of 10; under setting [8], 8 of 10.
As to `CCOC(=O)C(=CN1CCCCC1)C(=O)OCC`, the survivor count under setting [6] is reported as 5 of 10.
Consider `NNC(=S)N/N=C/c1ccc([N+](=O)[O-])s1`, for which the survivor count runs as follows: (dose: 6.25 mg/kg/injection, schedule: Q01DX009 (ip), vehicle: Klucel (hydroxypropylcellulose) (HPC)) 10 of 10; under setting [5], 10 of 10; under setting [2], 10 of 10; under setting [4], 10 of 10; under setting [9], 10 of 10.
Take `Cc1cccc(NS(=O)(=O)c2ccccc2)c1C`: the survivor count under setting [4] was 10 of 10.
With `CC(=N\O)/C(C)=N/O.CC(=N\O)/C(C)=N/O.[Fe].c1c[nH]cn1.c1c[nH]cn1`, the survivor count under setting [9] is reported as 7 of 10.
In the case of `NCC(=O)NC(CCCN=C(N)N)C(=O)O` (stereo not given), the survivor count under setting [7] was 10 of 10.
As to `C[C@@H](CN1CC(=O)NC(=O)C1)N1CC(=O)NC(=O)C1`, the T/C is, setting by setting: (dose: 32.0 mg/kg/injection, schedule: Q01DX009 (ip), vehicle: water) 131 % of control; (dose: 50.0 mg/kg/injection, schedule: Q04DX003 (ip), vehicle: water) 130 % of control; (dose: 64.0 mg/kg/injection, schedule: Q01DX009 (ip), vehicle: water) 133 and 142 % of control; (dose: 128.0 mg/kg/injection, schedule: Q01DX009 (ip), vehicle: water) 133 % of control; (dose: 200.0 mg/kg/injection, schedule: Q04DX003 (ip), vehicle: water) 127 % of control; (dose: 256.0 mg/kg/injection, schedule: Q01DX009 (ip), vehicle: water) 142 % of control. For the same molecule, the T/C by setting is: (dose: 400.0 mg/kg/injection, schedule: Q04DX003 (ip), vehicle: water) 130 % of control; (dose: 800.0 mg/kg/injection, schedule: Q04DX003 (ip), vehicle: water) 132 % of control. In addition, the survivor count is, setting by setting: (dose: 64.0 mg/kg/injection, schedule: Q01DX009 (ip), vehicle: saline with Tween-80) 10 of 10; (dose: 512.0 mg/kg/injection, schedule: Q01DX009 (ip), vehicle: water) 10 of 10.
Regarding `O=C(O)c1cc(C(=O)O)cc([N+](=O)[O-])c1`, the survivor count (dose: 100.0 mg/kg/injection, schedule: Q01DX009 (ip), vehicle: saline with Tween-80) was 10 of 10.
For the molecule `Cc1ccc2ccccc2c1OC(C)C(=O)O` (stereo not given), the survivor count is reported as 10 of 10 (dose: 25.0 mg/kg/injection, schedule: Q04DX003 (ip), vehicle: alcohol); 10 of 10 (dose: 50.0 mg/kg/injection, schedule: Q04DX003 (ip), vehicle: alcohol); 10 of 10 (dose: 100.0 mg/kg/injection, schedule: Q04DX003 (ip), vehicle: alcohol); 8 of 10 (dose: 200.0 mg/kg/injection, schedule: Q01DX009 (ip), vehicle: alcohol).
Regarding `O=C(Nc1cc(C(F)(F)F)ccc1Cl)c1ccc(Cl)cc1Cl`, under setting [6], the survivor count was 10 of 10.
Turning to `Cc1cccc(C2=NCCN2)c1C`, the T/C (dose: 10.0 mg/kg/injection, schedule: Q04DX003 (ip), vehicle: saline with Tween-80) is 125 % of control.
